Experimental data published in the supplement of paper PMC12889115.
The list shows a part of the results. Values are raw readings; no control value is given beside them.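 In the initial screen, polymyxin B was used at a concentration that permeabilizes Salmonella's outer membrane but not its inner membrane. Maximum growth was set by DMSO wells with or without polymyxin B. Since plates varied, data were ranked per plate, and compounds giving the lowest OD600 advanced as hits.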

Tested on: Salmonella enterica serovar Typhimurium SL1344
Assay: bacterial growth OD600 after 18 h with compound and polymyxin B; higher = more bacterial growth (less inhibition)
Details: 50 µM, Mueller-Hinton broth

COCCCN1C(=O)CC(CC(=O)N2CCN(c3ccccc3)CC2)(c2ccccc2OC)C1=O (stereo unspecified)
bacterial growth OD600 (polymyxin B 0.75 µg/mL): 0.739

CSc1ccccc1C(=O)N1CCCC(Nc2ccc(F)cc2)C1 (stereo unspecified)
bacterial growth OD600 (polymyxin B 1 µg/mL): 0.845

CC(C)CC(=O)Nc1ccnn1C1CCN(Cc2ccc(OCCO)cc2)CC1
bacterial growth OD600 (polymyxin B 1 µg/mL): 1.12

CO[C@H]1[C@H](NC(=O)COc2ccccc2)c2ccccc2C12CCN(C(=O)Cn1ccc(C)n1)CC2
bacterial growth OD600 (polymyxin B 0.75 µg/mL): 0.839

O=C(NC1CC1)C1CCCN(C2CCN(Cc3ccsc3)CC2)C1 (stereo unspecified)
bacterial growth OD600 (polymyxin B 0.75 µg/mL): 0.793

Cc1oc(-c2ccc(NC(=O)Cc3ccccc3)cc2)nc1CNC(=O)c1ccccc1Cl
bacterial growth OD600 (polymyxin B 0.75 µg/mL): 0.838

COc1ccc2ccc(OCc3nc(C(=O)NC(C)(C)C)co3)cc2c1
bacterial growth OD600 (polymyxin B 1 µg/mL): 0.746

CSc1ccc(CC2(CCC(=O)N3CCC(c4ccc(F)cc4)C3)CCC(=O)N2)cc1 (stereo unspecified)
bacterial growth OD600 (polymyxin B 0.75 µg/mL): 0.962

CC(=O)CC(C)C(=O)N1CCc2ccc(NC(=O)CCc3ccc(C)cc3)cc2C1 (stereo unspecified)
bacterial growth OD600 (polymyxin B 1 µg/mL): 0.98

CN(c1ncccc1CNC(=O)c1ccco1)C1CCCCC1
bacterial growth OD600 (polymyxin B 1 µg/mL): 0.675

COc1ccc(CC2(CCC(=O)N(CC3CCC3)CC3CCCO3)CCC(=O)N2)c2ccccc12 (stereo unspecified)
bacterial growth OD600 (polymyxin B 0.75 µg/mL): 0.791

CCCNC(=O)N1CCC2(CCCN(Cc3cccc(C)c3)C2=O)C1 (stereo unspecified)
bacterial growth OD600 (polymyxin B 1 µg/mL): 1

Cc1cccc(Cc2nnc(CCC(=O)N(C)CC3CCN(CC(C)C)CC3)o2)c1
bacterial growth OD600 (polymyxin B 0.75 µg/mL): 0.8

O=C(c1ccsc1)N1CCOC(Cc2ccccc2)C1 (stereo unspecified)
bacterial growth OD600 (polymyxin B 0.75 µg/mL): 0.856

CN(Cc1ccccc1)C1CCCN(Cc2ccc(O)cc2)C1 (stereo unspecified)
bacterial growth OD600 (polymyxin B 1 µg/mL): 0.812

OCC1(CCc2ccccc2)CCCN(Cc2cc3ccccc3o2)C1 (stereo unspecified)
bacterial growth OD600 (polymyxin B 1 µg/mL): 0.69

CC(C)n1cc(CN2CCC(CO)(Cc3ccccc3Cl)CC2)cn1
bacterial growth OD600 (polymyxin B 1 µg/mL): 0.57

O=C(CCC1CCN(C(=O)CCC(=O)c2ccccc2)CC1)Nc1ccccc1
bacterial growth OD600 (polymyxin B 1 µg/mL): 1.07

COc1ccc(C(=O)NC2CCCN(Cc3ccccc3F)C2)c(OC)c1OC (stereo unspecified)
bacterial growth OD600 (polymyxin B 1 µg/mL): 0.909

COC(=O)C1CCN(CC2(O)CCCN(Cc3cccc(F)c3F)C2=O)CC1 (stereo unspecified)
bacterial growth OD600 (polymyxin B 1 µg/mL): 0.869

COc1cc(=O)n2c(c1C(=O)N(C)Cc1nonc1C)CCN(C(=O)C1(C)CCCCC1)CC2
bacterial growth OD600 (polymyxin B 0.75 µg/mL): 0.915

CCCN1CCC(NC2CCCc3nc(-c4ccccc4)ncc32)CC1 (stereo unspecified)
bacterial growth OD600 (polymyxin B 0.75 µg/mL): 0.902

COc1cccc(C(C)N(C)C(=O)c2cc(Cn3ccnc3C(C)C)[nH]n2)c1 (stereo unspecified)
bacterial growth OD600 (polymyxin B 1 µg/mL): 0.985

CCN(C)CC1(O)CCCN(Cc2ccc(F)c(F)c2)C1=O (stereo unspecified)
bacterial growth OD600 (polymyxin B 1 µg/mL): 1

COc1ccc(C(=O)CCC(=O)N2CCC(CCC(=O)NC3CC3)CC2)cc1
bacterial growth OD600 (polymyxin B 1 µg/mL): 0.972

COc1ccc(CC(=O)NCC2CCCN(C(=O)c3occc3C)C2)cc1 (stereo unspecified)
bacterial growth OD600 (polymyxin B 0.75 µg/mL): 0.955

OC[C@@H]1CCCN1c1ccc(-c2nc(-c3ccccc3F)no2)cn1
bacterial growth OD600 (polymyxin B 1 µg/mL): 0.68

CCN(Cc1ccccc1)C(=O)c1coc(COc2ccccc2)n1
bacterial growth OD600 (polymyxin B 0.75 µg/mL): 0.072

Cc1ccc(CN(C)C(=O)CC2(c3cccc(C(F)(F)F)c3)CC(=O)N(C3CC3)C2=O)cc1 (stereo unspecified)
bacterial growth OD600 (polymyxin B 0.75 µg/mL): 0.006

O=C(CCCCc1ccccc1)Nc1ccc(N2CCC(NCCCc3cccnc3)CC2)cc1
bacterial growth OD600 (polymyxin B 0.75 µg/mL): 0.824

C=CCS(=O)(=O)N1CCCC1C(=O)Nc1ccccc1-c1ccc(OC)cc1 (stereo unspecified)
bacterial growth OD600 (polymyxin B 0.75 µg/mL): 0.783
